PubChem BioAssay AID1259267 | Sanger Institute, 2017

Assay: 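Which kinases and bowel-cancer genes GP5D cells need, with or without anchor drugs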 (primary screen)
Cell system: human GP5D colorectal cancer cells
Reagent: siRNA pool against human genes
Challenge: anchor drugs at low dose: BYL719 1 µM, cetuximab 5 µg/ml, trametinib 10 nM, or DMSO vehicle
Measured: 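Viability against non-targeting pool, replicate mean: robust z-score for knock-down alone, fraction with DMSO, synergy with BYL719 1 µM, cetuximab 5 µg/ml, trametinib 10 nM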
Direction: robust z-score, knock-down alone and viability with DMSO: higher = more viable cells; synergy score with trametinib and synergy score with BYL719 and synergy score with cetuximab: higher = stronger synthetic lethal synergy with drug
Hit rule: 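a robust z-score below -3 for the knock-down by itself makes a gene active, i.e. essential alone; synergy scores are ignored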
Calls: active = essential alone; inactive = not essential
This is an unselected part of 794 deposited reagents. 9 of all reagents (1.1%) were called active. 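Viability capped at 1; calls reflect loss of viability from knock-down alone, not synergy with drugs.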 Not stated in the record: the amount of reagent, the time to read-out.

target	robust z-score, knock-down alone	viability with DMSO (fraction of control)	synergy score with trametinib	synergy score with BYL719	synergy score with cetuximab	call
LMTK2	-0.989	0.617	0.154	-0.103	-0.0728	inactive
PHKG2	0.00901	0.829	-0.178	-0.189	0.054	inactive
CALM2	-0.623	0.695	0.114	-0.0231	0.00313	inactive
N4BP2	0.817	1	-0.145	-0.304	-0.142	inactive
MAPKAPK3	-0.702	0.678	-0.178	-0.0792	0.0197	inactive
SRC	0.817	1	-0.0817	-0.094	-0.0572	inactive
TP53RK	0.817	1	0.156	-0.0455	-0.0966	inactive
MAP2K5	0.817	1	0.185	-0.088	-0.142	inactive
CERK	0.817	1	-0.197	-0.182	-0.142	inactive
RUNX1	-1.69	0.469	0.0971	-0.0281	-0.0141	inactive
FN1	0.129	0.854	0.154	-0.216	-0.0357	inactive
RET	0.817	1	0.161	-0.24	0.0331	inactive
IGF2R	0.143	0.857	-0.153	-0.299	-0.127	inactive
STK32B	0.22	0.874	0.292	-0.0901	-0.123	inactive
PSKH1	0.817	1	0.0752	0.0971	-0.0643	inactive
PI4KB	0.817	1	0.302	-0.142	-0.0841	inactive

Single entries from above.
Under “synergy score with cetuximab”, STK32B has -0.123
PSKH1, robust z-score, knock-down alone = 0.817
Result of FN1 in “synergy score with cetuximab”: -0.0357
Entry for IGF2R under “synergy score with trametinib”: -0.153
Under “synergy score with BYL719”, CERK has -0.182

Additional records follow.
target	robust z-score, knock-down alone	viability with DMSO (fraction of control)	synergy score with trametinib	synergy score with BYL719	synergy score with cetuximab	call
COQ8B	0.817	1	-0.15	-0.277	-0.142	inactive
PHKA2	0.797	0.996	-0.2	-0.209	-0.146	inactive
ARID1A	0.817	1	0.103	-0.112	-0.0106	inactive
FN3K	-0.335	0.756	-0.188	-0.183	-0.327	inactive
PANK4	-0.0458	0.817	0.125	0.195	0.0952	inactive
LIMK1	0.817	1	-0.197	-0.27	-0.142	inactive
LCK	0.817	1	0.139	-0.00742	-0.0643	inactive
PSTK	-1.33	0.544	-0.0503	-0.385	-0.0332	inactive
MVK	0.68	0.971	0.122	0.111	-0.0415	inactive
IDH2	0.0549	0.838	-0.281	-0.29	-0.138	inactive
PDK4	0.817	1	-0.0739	0.0651	-0.0618	inactive
TNNI3K	0.817	1	-0.067	-0.0732	-0.0178	inactive
MAP4K1	-0.073	0.811	0.0237	-0.296	-0.235	inactive
MAGI3	-0.327	0.758	-0.225	-0.281	-0.188	inactive
DYRK2	0.817	1	0.434	-0.18	0.246	inactive
IP6K2	-2.09	0.383	-0.218	-0.378	-0.206	inactive
SMAD4	-0.0947	0.807	-0.0579	0.0278	0.083	inactive
NRBP2	-2.83	0.226	-0.072	-0.104	-0.00445	inactive
RPS6KB1	0.807	0.998	0.101	0.125	0.103	inactive
TP53BP1	-2.03	0.396	-0.557	-0.362	-0.415	inactive
PIP5KL1	0.817	1	-0.13	-0.0709	-0.127	inactive
MARK4	0.575	0.949	0.166	0.00352	-0.0795	inactive
PIK3CB	0.661	0.967	-0.139	-0.227	0.0158	inactive
STK32C	0.817	1	0.0484	-0.161	-0.0727	inactive
WNK2	0.817	1	-0.126	-0.174	-0.142	inactive
BRDT	-1.54	0.5	0.0901	-0.308	-0.153	inactive
RPS6KA6	0.817	1	0.238	-0.02	-0.142	inactive
PLK1	-3	0.191	-0.00768	-0.0761	-0.0283	active
SGK2	-0.103	0.805	-0.0156	-0.18	-0.112	inactive
STK26	0.817	1	-0.000696	-0.0538	-0.0447	inactive
PRKAR1A	0.817	1	-0.164	-0.233	-0.142	inactive
MLKL	-0.423	0.737	-0.335	-0.419	-0.113	inactive
NME3	0.0925	0.846	0.115	-0.0945	0.175	inactive
MST1R	0.817	1	0.283	0.0196	0.0101	inactive
